Test results from PubChem BioAssay AID493014 (National Center for Advancing Translational Sciences (NCATS), 2011).
The whole screen tested about 340,000 compounds, of which about 170 (0.05%) were called active. The inconclusive results got no clear call from the source; some entries with a clear call stand among them for comparison. The call rests on the fitted dose curve; in most records, active means well fitted inhibition curve with a large enough effect in the signal ratio, with a control signal flat (not every such curve was filed as active); inconclusive means small, poorly fitted or top-dose-only effect, or effect the other way, or a change in a side signal; inactive means flat fitted curve, though single readings scatter; the % refers to the signal ratio. Where the call is inconclusive, the potency comes from a doubtful curve fit.

Assay: qHTS Assay to Find Inhibitors of Chronic Active B-Cell Receptor Signaling;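 on activity change, negative = inhibition: plate controls were basal doxycycline-induced cells for no effect and cells given 10 µM MG132 for full effect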
Details: ABC-DLBCL IkBa-CBG/CBR reporter, luminescence ratio (green luciferase fused to IkBa over red control in TMD8 lymphoma cells), 4 h; activity change, negative = inhibition: at 46.1 µM (top of the series) unless noted
Outline: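 Doxycycline induced both beetle luciferases in TMD8 lymphoma cells; IKK-driven degradation limits the IkappaBalpha-fused green signal, while red luminescence normalises for cell number and nonspecific effects. Compounds tested up to 46 uM, 4 hrs.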
Potency means the concentration at half of the fitted maximal effect.

Row | Structure (SMILES) | activity change, negative = inhibition | Potency
1 | CCC(=O)Nc1cccc(C(=O)Nc2nccs2)c1 | inconclusive: 11.3% | 
2 | COc1ccc(NC(=O)CN(c2ccccc2)S(=O)(=O)N(C)C)cc1Cl | inconclusive: -9.74% | 
3 | CCOc1ccc(C(=O)N[C@H](C(=O)Nc2ccc(S(=O)(=O)Nc3nccs3)cc2)C(C)C)cc1 | inactive | 
4 | COc1ccc(CN(C)C(=O)c2ccc(NC(=O)CC3SC(N4CCCC4)=NC3=O)cc2)c(OC)c1 (stereo unspecified) | inconclusive: -17.8% | 
5 | CCOc1ccc(C(=O)Nc2ccc(-n3nncc3-c3ccccc3)cc2)cc1OCC |  | inconclusive: 22.4 µM [falling, single point]
6 | CN(C(=O)COC(=O)CNC(=O)C1CCCCC1)c1ccccc1 | inconclusive: 6.55% | 
7 | Cc1cccc2sc(NS(=O)(=O)c3ccccc3)nc12 | inconclusive: 7.75% | 
8 | CCN(CC)CCNC(=O)c1sc2ncn(CC(=O)Nc3ccc(C)c(Cl)c3)c(=O)c2c1C |  | inconclusive: 22.4 µM [falling, single point]
9 | COc1ccc(-c2csc(NC3OC(=O)c4ccccc43)n2)cc1 (stereo unspecified) |  | inconclusive: 17.8 µM [falling, partial curve]
10 | O=C(CN1N=C(c2ccccc2)CCC1=O)NCc1ccccc1 | inconclusive: 3.27% | 
11 | O=C(NCc1ccc2c(c1)CCN2C(=O)c1ccc(F)cc1)c1ccco1 | inconclusive: -15.8% | 
12 | O=[N+]([O-])c1cc(/C=N/OCc2c(Cl)cccc2Cl)ccc1N1CCOCC1 | inconclusive: 24.7% | 
13 | CCCCC(=O)NC1(C(F)(F)F)C(=O)Nc2c1c(=O)[nH]c(=O)n2Cc1ccco1 (stereo unspecified) |  | inconclusive: 10.3 µM [rising, partial curve, poor fit]
14 | COc1cc(/C=C(\C#N)C(=O)Nc2ccc(SC(F)F)cc2)cc(OC)c1OC | inconclusive: 12.2% | 
15 | O=C(NC1CCCCCC1)c1ccc(CS(=O)(=O)Cc2ccccc2F)o1 | inactive | 
16 | O=C1C2C3C=CC(C4CC34)C2C(=O)N1/N=C/c1c[nH]c2ccccc12 (stereo unspecified) |  | inconclusive: 2 µM [falling, partial curve, poor fit]
17 | CCOC(=O)c1ccc(CNC(=O)C2CCCCC2C(=O)OCC(F)(F)F)o1 (stereo unspecified) | inactive | 
18 | COc1ccc(CNCc2cc(C)c(OC)cc2C)c(OC)c1 | inconclusive: -8.05% | 
19 | Cc1ccc(C(=O)O/N=C(\N)c2ccccn2)c(C)c1 |  | inconclusive: 0.631 µM [rising, partial curve, poor fit]
20 | O=C(Nc1ccc2oc(-c3ccc4ccccc4c3)nc2c1)c1ccc2c(c1)OCCO2 | inconclusive: 9.11% | 
21 | CCCC(O)(CCC)C(=O)NN(C(=O)CCl)c1ccccc1 | inconclusive: 11.4% | 

Two of the compounds above, in markdown.

| Row | Structure (SMILES) | activity change, negative = inhibition | Potency |
| --- | --- | --- | --- |
| 3 | CCOc1ccc(C(=O)N[C@H](C(=O)Nc2ccc(S(=O)(=O)Nc3nccs3)cc2)C(C)C)cc1 | inactive |  |
| 8 | CCN(CC)CCNC(=O)c1sc2ncn(CC(=O)Nc3ccc(C)c(Cl)c3)c(=O)c2c1C |  | inconclusive: 22.4 µM [falling, single point] |
